Our source for the binding values is paper PMC11336944.

By UniProt entry, the sequences of proteins in these tests, tags left out.
UniProt O35286: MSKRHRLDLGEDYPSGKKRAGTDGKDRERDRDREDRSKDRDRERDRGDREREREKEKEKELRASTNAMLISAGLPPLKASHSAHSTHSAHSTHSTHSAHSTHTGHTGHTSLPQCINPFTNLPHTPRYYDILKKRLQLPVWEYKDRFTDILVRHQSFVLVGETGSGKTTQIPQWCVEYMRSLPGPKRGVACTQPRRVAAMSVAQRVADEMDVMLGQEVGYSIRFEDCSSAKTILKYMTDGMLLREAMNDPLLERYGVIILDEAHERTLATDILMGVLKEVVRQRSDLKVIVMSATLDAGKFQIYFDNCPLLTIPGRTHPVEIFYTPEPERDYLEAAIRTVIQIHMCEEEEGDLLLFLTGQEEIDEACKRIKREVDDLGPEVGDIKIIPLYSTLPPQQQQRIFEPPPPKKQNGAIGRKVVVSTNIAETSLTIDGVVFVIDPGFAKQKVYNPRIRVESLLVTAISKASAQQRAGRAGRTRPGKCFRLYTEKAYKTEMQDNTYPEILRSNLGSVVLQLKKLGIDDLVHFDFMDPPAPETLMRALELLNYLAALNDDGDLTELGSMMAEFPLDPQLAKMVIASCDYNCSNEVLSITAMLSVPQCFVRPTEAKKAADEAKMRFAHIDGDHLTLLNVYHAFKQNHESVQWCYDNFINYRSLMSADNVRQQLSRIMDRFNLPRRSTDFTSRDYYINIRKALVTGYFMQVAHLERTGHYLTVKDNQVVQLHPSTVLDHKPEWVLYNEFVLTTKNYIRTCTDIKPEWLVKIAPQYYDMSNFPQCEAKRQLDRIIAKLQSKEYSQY
UniProt P29341: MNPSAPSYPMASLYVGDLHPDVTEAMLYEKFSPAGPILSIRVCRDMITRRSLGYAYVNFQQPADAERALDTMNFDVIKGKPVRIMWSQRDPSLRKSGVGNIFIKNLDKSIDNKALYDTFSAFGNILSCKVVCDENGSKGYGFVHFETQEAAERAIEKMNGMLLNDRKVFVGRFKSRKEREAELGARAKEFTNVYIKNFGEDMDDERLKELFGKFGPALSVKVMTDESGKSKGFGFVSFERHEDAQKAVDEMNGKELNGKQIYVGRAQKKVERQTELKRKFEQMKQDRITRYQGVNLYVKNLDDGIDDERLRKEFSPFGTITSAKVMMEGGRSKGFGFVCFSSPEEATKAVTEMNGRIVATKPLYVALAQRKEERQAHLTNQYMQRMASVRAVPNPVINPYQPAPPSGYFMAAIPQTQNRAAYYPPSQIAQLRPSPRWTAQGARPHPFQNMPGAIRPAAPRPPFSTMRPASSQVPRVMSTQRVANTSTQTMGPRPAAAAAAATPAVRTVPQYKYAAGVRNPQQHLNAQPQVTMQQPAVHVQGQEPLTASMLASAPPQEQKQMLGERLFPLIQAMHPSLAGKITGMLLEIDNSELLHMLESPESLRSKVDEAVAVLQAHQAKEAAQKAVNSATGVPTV
UniProt O70133: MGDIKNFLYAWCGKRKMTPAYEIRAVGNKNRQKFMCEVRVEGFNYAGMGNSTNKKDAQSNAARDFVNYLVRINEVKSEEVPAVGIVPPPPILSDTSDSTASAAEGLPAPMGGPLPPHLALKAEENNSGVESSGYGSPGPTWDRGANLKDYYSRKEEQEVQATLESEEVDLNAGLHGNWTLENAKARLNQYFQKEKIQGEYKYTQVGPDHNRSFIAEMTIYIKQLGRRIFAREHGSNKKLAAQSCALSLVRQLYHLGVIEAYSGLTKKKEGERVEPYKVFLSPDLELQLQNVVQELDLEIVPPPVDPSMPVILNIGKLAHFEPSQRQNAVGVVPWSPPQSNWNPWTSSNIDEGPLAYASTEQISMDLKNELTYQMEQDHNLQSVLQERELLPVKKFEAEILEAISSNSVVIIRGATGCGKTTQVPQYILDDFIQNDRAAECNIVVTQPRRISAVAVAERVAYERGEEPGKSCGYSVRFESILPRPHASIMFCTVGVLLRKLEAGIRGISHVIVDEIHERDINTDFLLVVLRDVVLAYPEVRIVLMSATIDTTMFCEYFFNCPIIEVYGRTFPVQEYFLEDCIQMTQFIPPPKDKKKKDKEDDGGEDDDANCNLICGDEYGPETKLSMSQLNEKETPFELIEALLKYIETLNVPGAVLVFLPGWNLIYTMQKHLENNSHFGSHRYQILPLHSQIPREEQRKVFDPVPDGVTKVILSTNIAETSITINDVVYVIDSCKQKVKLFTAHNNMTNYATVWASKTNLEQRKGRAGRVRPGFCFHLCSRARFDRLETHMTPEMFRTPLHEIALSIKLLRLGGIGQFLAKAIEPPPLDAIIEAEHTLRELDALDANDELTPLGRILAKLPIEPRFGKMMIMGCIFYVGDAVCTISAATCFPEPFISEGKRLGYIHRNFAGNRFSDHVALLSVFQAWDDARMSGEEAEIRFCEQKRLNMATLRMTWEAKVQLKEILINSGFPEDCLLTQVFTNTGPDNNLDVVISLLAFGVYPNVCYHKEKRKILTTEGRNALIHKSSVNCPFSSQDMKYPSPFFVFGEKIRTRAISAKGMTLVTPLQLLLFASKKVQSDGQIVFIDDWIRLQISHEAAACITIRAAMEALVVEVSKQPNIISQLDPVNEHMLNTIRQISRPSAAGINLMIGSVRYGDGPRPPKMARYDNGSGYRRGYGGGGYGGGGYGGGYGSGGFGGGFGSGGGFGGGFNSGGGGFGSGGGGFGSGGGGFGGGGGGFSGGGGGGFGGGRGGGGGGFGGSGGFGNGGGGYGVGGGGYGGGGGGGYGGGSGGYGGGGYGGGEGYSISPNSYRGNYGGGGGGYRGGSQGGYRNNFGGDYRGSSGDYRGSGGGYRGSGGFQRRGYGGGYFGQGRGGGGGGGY

No constants are given. Whether binding was seen depends on the method and setting. In cells and extracts the contact can be indirect. Some binding calls cover weakened binding; strength is not graded here.

Experiment [1] concerns the target PRPF8 (mouse (endogenous in testis)) (UniProt Q99PV0). Kind of experiment: co-IP; PRPF8 antibody immunoprecipitation from sorted germ cells of Cwf19l2-SKO mice (CWF19L2 deleted in germ cells), immunoblotting, bands quantified against control mice; IgG as negative control. For orientation: In western blotting, separated proteins are transferred to a membrane and probed.

Experiment [2] has as its target T1, CWF19‐like protein 2 (CWF19L2) (mouse (endogenous in testis)) (UniProt Q8BG79).
T1 sequence: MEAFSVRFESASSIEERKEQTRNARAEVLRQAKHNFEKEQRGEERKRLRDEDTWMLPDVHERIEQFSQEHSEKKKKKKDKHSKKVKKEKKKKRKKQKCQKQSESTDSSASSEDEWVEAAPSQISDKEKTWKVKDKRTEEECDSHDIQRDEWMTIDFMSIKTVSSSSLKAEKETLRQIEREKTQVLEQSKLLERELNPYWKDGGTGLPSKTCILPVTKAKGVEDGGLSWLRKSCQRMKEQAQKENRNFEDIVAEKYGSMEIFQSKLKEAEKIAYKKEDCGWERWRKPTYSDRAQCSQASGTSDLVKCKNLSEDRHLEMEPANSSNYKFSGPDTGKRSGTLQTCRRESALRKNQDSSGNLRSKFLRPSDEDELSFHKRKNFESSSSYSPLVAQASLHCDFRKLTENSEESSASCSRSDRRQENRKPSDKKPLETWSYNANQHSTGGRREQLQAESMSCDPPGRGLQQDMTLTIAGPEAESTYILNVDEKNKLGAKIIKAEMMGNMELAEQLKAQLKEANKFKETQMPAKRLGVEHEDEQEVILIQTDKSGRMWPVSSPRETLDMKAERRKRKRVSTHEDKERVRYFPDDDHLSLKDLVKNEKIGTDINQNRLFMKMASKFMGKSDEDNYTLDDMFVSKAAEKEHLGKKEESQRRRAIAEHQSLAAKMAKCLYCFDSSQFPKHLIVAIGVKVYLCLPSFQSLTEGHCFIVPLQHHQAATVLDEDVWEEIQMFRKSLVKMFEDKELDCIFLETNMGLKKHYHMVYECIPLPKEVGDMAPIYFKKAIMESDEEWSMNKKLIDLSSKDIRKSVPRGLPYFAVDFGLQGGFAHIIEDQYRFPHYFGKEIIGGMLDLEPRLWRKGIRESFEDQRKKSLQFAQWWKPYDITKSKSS
Kind of experiment: co-IP; CWF19L2 immunoprecipitation from extracts of PD10 WT testes (NP-40 lysis buffer, antibody at 4 °C overnight, protein A/G magnetic beads), immunoblotting; IgG as negative control.

Experiment [3] addresses PRPF8 (mouse (endogenous in testis)) (UniProt Q99PV0). Kind of experiment: co-IP; PRPF8 antibody immunoprecipitation from sorted germ cells of control mice (for SLU7 also of Cwf19l2-SKO mice), immunoblotting; IgG as negative control.

On to PRPF43 (from UniProt O35286 1-795), for which the binding result is “binds weakly” in experiment [1], “binds” in experiment [2] and “binds” in experiment [3].

As for PABPC1 (from UniProt P29341 1-636), in experiment [2], the binding entry is on record as “binds”.

As to DHX9 (from UniProt O70133 1-1380), in experiment [2], the binding entry is on record as “binds”.
